These are yes or no findings as the source states them, for the method shown. Binding seen in cells or lysates may run through a third protein. A result given as binding can be weak or reduced; the word gives no strength.
What was measured:
[1] = biological target: JNK (human (endogenous in AGS and HGC-27)); assay: co-IP; whole cell lysate of AGS and HGC-27 cells (5 mg protein), primary antibody overnight at 4 C, protein A/G agarose 2 h at 4 °C, western blot
[2] = biological target: JNK (human (endogenous in AGS and HGC-27)); assay: co-IP; membrane fractions of negative control and LCN2-overexpressing GC cells, co-immunoprecipitation and western blot

- binding [1]: binds
- binding [2]: binds
B1: 24p3R (receptor, UniProt Q8WUG5 1-649)
chain: MAPRVATGTPEPNGGGGGKIDNTVEITPTSNGQVGTLGDAVPTEQLQGEREREREGEGDAGGDGLGSSLSLAVPPGPLSFEALLAQVGALGGGQQLQLGLCCLPVLFVALGMASDPIFTLAPPLHCHYGAFPPNASGWEQPPNASGVSVASAALAASAASRVATSTDPSCSGFAPPDFNHCLKDWDYNGLPVLTTNAIGQWDLVCDLGWQVILEQILFILGFASGYLFLGYPADRFGRRGIVLLTLGLVGPCGVGGAAAGSSTGVMALRFLLGFLLAGVDLGVYLMRLELCDPTQRLRVALAGELVGVGGHFLFLGLALVSKDWRFLQRMITAPCILFLFYGWPGLFLESARWLIVKRQIEEAQSVLRILAERNRPHGQMLGEEAQEALQDLENTCPLPATSSFSFASLLNYRNIWKNLLILGFTNFIAHAIRHCYQPVGGGGSPSDFYLCSLLASGTAALACVFLGVTVDRFGRRGILLLSMTLTGIASLVLLGLWDCEHPIFPTVWAQQGNPNRDLNEAAITTFSVLGLFSSQAAAILSTLLAAEVIPTTVRGRGLGLIMALGALGGLSGPAQRLHMGHGAFLQHVVLAACALLCILSIMLLPETKRKLLPEVLRDGELCRRPSLLRQPPPTRCDHVPLLATPNPAL

From PMC11489581
